The values that follow come from PubChem BioAssay AID2685 (National Center for Advancing Translational Sciences (NCATS), 2010).

The list shows a part of the results. Further columns of the screen follow, without active or inactive calls. The list favours compounds with an active or inconclusive main result. Potencies come from curve fits of mixed quality, noted in brackets.

The nature of the assay: qHTS Assay for Lipid Storage Modulators in Drosophila S3 Cells.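 For cell number change: cells counted by Cell Tracker Red CMTPX staining in the red channel.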 The settings on record: BODIPY lipid droplet fluorescence, 18-24 h; for cell number change: measured here: cell count max response, cells fed with added oleic acid. The method in brief:
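Laser-scanning cytometry quantifies lipid droplet accumulation (500–530 nm total intensity; droplet/cell object ratio) in oleic acid-fed (400 uM added) Drosophila S3 cells treated with a concentration series. 20 uM Triacsin C defined 100% inhibition.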
For orientation: qHTS replaces the single test concentration by a dilution series.

Setting [1] is: measured here: cell number channel AC50, cells fed with added oleic acid.
Setting [2] is: measured here: lipid fluorescence (Fed channel) AC50, cells fed with added oleic acid.

As for `C=CCOc1ccc(/C(O)=C2\C(=O)C(=O)N(CCCOC)C2c2ccncc2)cc1` (stereo unspecified), the cell number change is -20.1%. In addition, the AC50 (usually the concentration giving half of the maximal activity seen) under setting [1] was 0.13 µM [falling, full curve, poor fit].
As for `CCN1CCc2c(sc(NC(=O)c3ccc(S(=O)(=O)N(C)CC4CCCO4)cc3)c2C(N)=O)C1` (stereo unspecified), the AC50 under setting [2] is 3.26 µM [falling, full curve, poor fit].
For the compound `CCOC(=O)c1ccc(NC(=O)NCc2ccccc2OC)cc1`, the cell number change was -0.205%.
For the compound `CNC(=O)c1snnc1-c1ccccc1`, the cell number change was -12.6%. Also, the AC50 under setting [1] is 0.411 µM [falling, full curve]. In addition, the half-maximal activity concentration (AC50) under setting [2] is 1.3 µM [falling, partial curve].
Turning to `O=C1CN(C(=O)COC(=O)c2ccc(N3CCCCCC3)c([N+](=O)[O-])c2)c2ccccc2N1`, the cell number change was 7.97%. Moreover, the AC50 under setting [1] was 6.51 µM [falling, single point]. Moreover, under setting [2], the half-maximal activity concentration (AC50) is 6.51 µM [falling, single point].
With `O=C(CSc1nnc(-c2ccc(Br)cc2)o1)N1CCN(C(=O)c2ccco2)CC1`, the cell number change was -28.5%. Also, the AC50 under setting [2] was 0.326 µM [rising, partial curve, poor fit].
For `O=C(N/N=C/c1cccs1)c1ccc2ncccc2c1`, the AC50 under setting [1] was 0.0206 µM [rising, full curve, poor fit].
Turning to `CCn1cc(C(=O)NCCC2=CCCCC2)c(=O)c2cc(S(=O)(=O)N(C)C)ccc21`, the cell number change was -24.3%. Further, the half-maximal activity concentration (AC50) under setting [2] is 18.4 µM [falling, single point].
As to `CC12CCC(C(=O)Nc3cc(Cl)ccc3Cl)(C(Br)C1=O)C2(C)C` (stereo unspecified), the cell number change is 31.7%. Moreover, the AC50 under setting [1] is 14.6 µM [rising, partial curve, poor fit].
Consider `CCN(C(=O)CSc1ncccn1)C1CCS(=O)(=O)C1` (stereo unspecified), for which the cell number change was determined as 31.2%. In addition, the concentration at half-maximal activity (AC50) under setting [1] is 29.1 µM [rising, single point]. In addition, under setting [2], the AC50 is 29.1 µM [falling, single point].
With `CCN=c1scc(-c2ccccc2)n1/N=C/c1ccccn1`, the cell number change is -3.33%. The concentration at half-maximal activity (AC50) under setting [2] is 1.46 µM [rising, partial curve].
As for `CCOC(=O)N1CCN(Cc2nc3c(c(=O)n(C)c(=O)n3C)n2Cc2ccccc2C)CC1`, the cell number change turned out to be 5.62%. Further, the AC50 under setting [1] was 3.26 µM [rising, single point]. In addition, the concentration at half-maximal activity (AC50) under setting [2] is 2.91 µM [rising, full curve, poor fit].
Consider `Cc1noc(C)c1CSc1nnc2sc3ccccc3n12`, for which the cell number change came out at 4.91%. The AC50 under setting [2] is 14.6 µM [rising, partial curve].
As to `COC(CNC(=O)c1ccc2c(=O)n(Cc3ccc(Cl)cc3)c(=S)[nH]c2c1)OC`, the cell number change is -51.9%. Under setting [1], the AC50 was 32.6 µM [falling, partial curve]. Further, the AC50 under setting [2] is 20.6 µM [falling, single point].
Turning to `CCCn1c(NCc2ccco2)nc2c1c(=O)n(C)c(=O)n2C`, the cell number change is -25.5%. Under setting [2], the AC50 is 18.4 µM [falling, single point].
`CC1=C(C(N)=O)C(c2ccc(Br)cc2)n2nc(CCCO)nc2N1` (stereo unspecified): the cell number change is -16.1%. Moreover, under setting [2], the AC50 is 0.164 µM [falling, full curve, poor fit].
In the case of `CC(C)c1cc(C(N)=O)c(NC(=O)c2cccc(COc3ccc(Br)cc3)c2)s1`, the cell number change was -8.99%. In addition, under setting [1], the concentration at half-maximal activity (AC50) is 0.184 µM [rising, partial curve]. Besides, the AC50 under setting [2] was 4.11 µM [rising, partial curve].
`CCOc1ccc2[nH]c(=O)c(CN(Cc3ccco3)C(=O)c3cccc(F)c3)cc2c1`: the concentration at half-maximal activity (AC50) was 2.59 µM [rising, single point] under setting [1] and 5.17 µM [rising, single point] under setting [2].
Turning to `COc1ccc(-c2nn[nH]n2)cc1OC`, the cell number change is -44.9%. In addition, the AC50 under setting [1] was 29.1 µM [falling, single point].
Turning to `COc1ccc(C2(C)NC(=O)N(CC(=O)NC3(C#N)CCCCC3)C2=O)cc1` (stereo unspecified), the cell number change was determined as 17.9%. Moreover, the AC50 under setting [2] is 0.326 µM [rising, full curve].
In the case of `Cc1ccc(NC(=O)Nc2ccc3c(c2)CCC3)cc1`, the cell number change came out at 27.5%. The AC50 under setting [2] is 29.1 µM [rising, partial curve, poor fit].
Regarding `CC(=O)NN1C(=O)c2ccccc2NC1c1ccc(N(C)C)cc1` (stereo unspecified), the cell number change worked out at 14.8%. Also, the half-maximal activity concentration (AC50) under setting [2] is 29.1 µM [rising, single point].
As for `Nc1nc(-c2cccnc2)nn1C(=O)COc1ccccc1`, the AC50 under setting [1] was 6.51 µM [rising, single point].
As to `COc1ccc([N+](=O)[O-])cc1NS(=O)(=O)c1ccccc1`, the cell number change stood at 3.52%. For the same compound, the half-maximal activity concentration (AC50) under setting [1] is 0.164 µM [rising, full curve, poor fit]. Besides, the concentration at half-maximal activity (AC50) under setting [2] is 1.16 µM [rising, partial curve].
For `CCn1c(=O)n(-c2ccc(Cl)cc2)c(=O)c2c3c(sc21)COC(C)(C)C3`, the cell number change was 17.2%.
Turning to `Cc1cc(C(=O)NNC(=O)/C=C/c2ccc(F)cc2)c(C)o1`, the cell number change came out at 0.262%. In addition, the half-maximal activity concentration (AC50) under setting [2] was 0.00517 µM [rising, full curve, poor fit].
With `COC(=O)c1sccc1NC(=O)Nc1cccc(C)c1`, the cell number change was 10.8%. The half-maximal activity concentration (AC50) under setting [2] was 3.66 µM [rising, partial curve, poor fit].
With `CCOc1ccc(C(C)NC(=O)c2cc(=O)[nH]c3ccccc23)cc1OCC` (stereo unspecified), the AC50 under setting [2] was 0.00461 µM [falling, full curve].
Consider `CC1CCN(C(=O)c2[nH]cnc2C(=O)Nc2ccc(Cl)cc2)CC1`, for which the cell number change was -42.6%. Under setting [1], the AC50 is 3.66 µM [falling, single point].
For the compound `Cc1ccc(-c2nn(-c3ccc(F)cc3)cc2C(=O)NCC2CCCO2)cc1` (stereo unspecified), the cell number change is -37.3%. For the same compound, the AC50 under setting [1] is 0.82 µM [falling, full curve, poor fit]. For the same compound, the concentration at half-maximal activity (AC50) under setting [2] is 1.46 µM [falling, full curve, poor fit].
With `CS(=O)(=O)c1ccc(Cl)c(NC(=O)C2CCCCN2S(=O)(=O)c2ccccc2)c1` (stereo unspecified), the cell number change is -6.38%. Moreover, under setting [2], the AC50 was 0.164 µM [falling, full curve, poor fit].
With `Clc1ccccc1/C=N/N1CCN(Cc2ccccc2)CC1`, the cell number change is -9.12%. The AC50 under setting [2] was 29.1 µM [rising, single point].
Turning to `O=S(=O)(NCCN1CCOCC1)c1ccc(Oc2ccccc2Cl)cc1`, the AC50 under setting [2] is 20.6 µM [falling, single point].
On to `CCCCn1c(N)c(N(CCOC)C(=O)C2CCN(S(=O)(=O)c3ccccc3)CC2)c(=O)[nH]c1=O`, for which the half-maximal activity concentration (AC50) runs as follows: under setting [1], 6.51 µM [falling, partial curve, poor fit]; under setting [2], 5.17 µM [falling, partial curve].
Take `O=C(Nc1ccc(C(=O)N2CCN(c3ccc(F)cc3)CC2)cc1)C1=CSCCO1`: the cell number change is 22.6%. The AC50 under setting [1] was 0.184 µM [rising, full curve]. Moreover, the AC50 under setting [2] was 6.51 µM [rising, single point].
Turning to `C=C(C)CNC(=S)NN=C1c2ccccc2-c2ccccc21`, the cell number change is -7.79%.
For `FC(F)(F)c1ccc(Oc2ccc3cc(Br)ccc3c2)nc1`, the cell number change was -24.7%. In addition, the half-maximal activity concentration (AC50) under setting [2] was 2.91 µM [falling, single point].
As to `CN(C)CCN(C(=O)c1ccc(S(=O)(=O)N(C)c2ccccc2)cc1)c1nc2ccc(Cl)cc2s1`, the cell number change is -11.6%. In addition, the AC50 under setting [2] was 2.06 µM [falling, partial curve, poor fit].
`COc1cccc(-c2c(NC(=O)c3ccco3)oc3ccccc3c2=O)c1`: the cell number change came out at 25.2%. Besides, under setting [2], the concentration at half-maximal activity (AC50) was 3.26 µM [rising, single point].
With `CCOc1ccc(N(CC(=O)Nc2cccc(C)c2C)S(=O)(=O)c2c(C)[nH]c(=O)[nH]c2=O)cc1`, the cell number change was -1.03%. For the same compound, the half-maximal activity concentration (AC50) under setting [1] is 0.00461 µM [rising, full curve, poor fit].
`Cc1cccc(NC(=O)CSc2nnc(-c3ccccc3)n2N)c1C`: the cell number change was 30.1%. For the same compound, the concentration at half-maximal activity (AC50) under setting [1] is 0.13 µM [rising, full curve, poor fit]. For the same compound, the half-maximal activity concentration (AC50) under setting [2] was 25.9 µM [rising, partial curve, poor fit].
Turning to `CCc1ccc(C(=O)CSc2n[nH]c(-c3ccncc3)n2)cc1`, the cell number change is -41.6%.
Regarding `CCN1CCN(c2c(Cl)cccc2NC(=O)c2ccco2)CC1`, under setting [2], the concentration at half-maximal activity (AC50) was 1.64 µM [rising, partial curve].
In the case of `CN(CC(=O)Nc1ccccc1C(=O)N1CCCC1)S(=O)(=O)c1ccc(Br)cc1`, the half-maximal activity concentration (AC50) under setting [1] was 0.291 µM [falling, full curve, poor fit].
Turning to `COc1ccc(NS(=O)(=O)c2ccc(-n3cnnn3)cc2)cc1OC`, the cell number change was -51.2%. For the same compound, the AC50 under setting [1] was 23.1 µM [falling, partial curve, poor fit]. Further, the concentration at half-maximal activity (AC50) under setting [2] is 4.11 µM [falling, single point].
Consider `CC1(C)CC(NS(=O)(=O)c2ccc3ccccc3c2)CC(C)(C)N1`, for which the cell number change came out at 20.2%.
Same read-out and setting: to `Cc1ccc(C(=O)N/N=C/c2ccc(-c3cccc(C(F)(F)F)c3)o2)cn1` belongs -11.7%.
As for `CCN1C(=O)c2ccccc2Sc2ccc(C(=O)NCCC(C)C)cc21`, the cell number change is -29.1%. Also, under setting [2], the AC50 was 0.00517 µM [falling, full curve, poor fit].
`COc1cc(CNc2ccc3[nH]c(=O)[nH]c3c2)cc(Br)c1OCc1ccc(F)cc1`: the cell number change was -46.1%. The half-maximal activity concentration (AC50) under setting [1] was 14.6 µM [falling, single point]. Further, under setting [2], the half-maximal activity concentration (AC50) was 16.4 µM [falling, single point].
For the compound `O=C1c2oc3ccc(Br)cc3c(=O)c2C(c2cccnc2)N1Cc1ccco1` (stereo unspecified), the cell number change is -7.58%. Besides, the concentration at half-maximal activity (AC50) under setting [1] is 3.26 µM [rising, single point].
On to `CC1=C(C(=O)OC(C)(C)C)C(c2cccc3ccccc23)NC(=O)N1` (stereo unspecified), for which the cell number change turned out to be 5.55%. Moreover, under setting [2], the AC50 was 2.59 µM [rising, full curve].
For the compound `CCOC(=O)C1=C(N)Oc2c(c(=O)[nH]c3ccccc23)C1c1ccccc1` (stereo unspecified), the cell number change was 27.3%. Under setting [1], the AC50 is 0.651 µM [rising, full curve, poor fit]. In addition, the AC50 under setting [2] is 1.46 µM [rising, full curve].
As for `Cc1ccc(NC(=O)CN(C)C(=O)CSc2nnc(N)s2)cc1`, the cell number change is -0.452%. Further, under setting [2], the half-maximal activity concentration (AC50) is 5.17 µM [falling, full curve].
For `CCc1nnc(N/N=C/c2ccccc2F)n1N`, the cell number change is -11.6%. Further, the concentration at half-maximal activity (AC50) under setting [2] is 29.1 µM [falling, single point].
On to `CCOc1ccc2cc(C(=O)c3ccccc3)c(=O)oc2c1`, for which the cell number change is -39.1%. Further, under setting [1], the half-maximal activity concentration (AC50) is 23.1 µM [falling, single point]. Further, under setting [2], the AC50 was 23.1 µM [falling, single point].
